“Also recorded” adds a separate entry of the source. Where a SMILES comes first, the peptide text is derived from it. Bridges are numbered along the chain shown (N, C = ends). The star is where a group is joined. X1 = CC1(C)C(/C=C/C=C/C=C/C=C2/N(CCC(=O)*)c3ccc4ccccc4c3C2(C)C)=[N+](CCC(=O)[O-])c2ccc3ccccc3c21
Assays:
[1] = test system: K/BxN (F1) mice with spontaneous arthritis; test: Whole-body near-infrared fluorescence imaging in K/BxN spontaneous arthritis mice; conditions: 6 nmol i.v., 18 h post-injection
Method: The K/BxN mice with spontaneous arthritis (F1) were maintained in the laboratory. To establish serum transfer arthritis (STA), male 6-8 weeks old C57BL/6J mice were injected intraperitoneally with 150-175 μL of serum derived from F1 mice (8-9 weeks old). Day 0 denoted induction of serum transfer/disease. Clinical manifestation of arthritis in each paw was assessed daily on a scale of 0-3 with 0=no swelling or erythema, 1=slight swelling or erythema, 2=moderate erythema and swelling in multiple digits or entire paw, and 3=pronounced erythema and swelling of an entire paw, with a maximum score of 12 per mouse. The ankle thickness of two hind paws was measured using calipers. Animals were monitored for distress during arthritis induction, including their ability to move around the cage and access food/water.
In the K/BxN (F1) mice with spontaneous arthritis, inflammation occurs progressively in the paws, ankle, and knee joints leading to measurable local erythema and swelling. F1 mice with severe arthritis (9-10 weeks old) were injected intravenously with LS301 and imaged 18 h post-injection for near-infrared fluorescence using the Pearl Small Animal Imaging System.
Arthritic or control (non-diseased) mice were injected intravenously with 6 nmol LS301. […] Images shown represented at least two independent experiments and were taken at 18 h post-injection with mice in dorsal orientation. […]

[2] = general procedure: Fmoc solid-phase peptide synthesis; Fmoc-Lys(Boc)-Wang resin; HBTU/DIEA; conditions: whole synthesis, analytical HPLC, scale 0.1 mmol

| Molecule | diagnostic identification of animals with RA vs. healthy animals [1] | correlation between fluorescence signal and disease severity (clinical paw scoring) ([1]; F1 mice with early, intermediate or late-stage arthritis) | final HPLC purity [2] [%] |
| --- | --- | --- | --- |
| CC1(C)C(/C=C/C=C/C=C/C=C2/N(CCC(=O)N[C@@H]3CSSC[C@@H](C(=O)N[C@@H](CCCCN)C(=O)O)NC(=O)[C@@H]4CCCN4C(=O)[C@H](CO)NC(=O)[C@H](CC(=O)O)NC(=O)[C@H](CCCNC(=N)N)NC(=O)CNC3=O)c3ccc4ccccc4c3C2(C)C)=[N+](CCC(=O)[O-])c2ccc3ccccc3c21 [LS301, cypate-cyclic (DCys-Gly-Arg-Asp-Ser-Pro-Cys)-Lys-OH] (X1-CGRDSPCK-OH; disulfide 1-7; configuration not given here) | diagnostically identified animals with RA vs. healthy (non-diseased) animals | positive correlation between fluorescence signal and disease severity; also recorded: fluorescence intensity correlating to disease severity |  |
| cypate-cyclic (DCys-Gly-Arg-Asp-Ser-Pro-Cys)-Lys-OH |  |  | >95 |
